Some results were stated once for a whole list of compounds, not compound by compound.
Test system: AMPA receptors
Assay: Rat cortical slice, responses to AMPA
Type: cell-based
Conditions: calculated from righthand shift in the AMPA concentration-response curve, read-out: Kb value in response to AMPA (apparent equilibrium constant)

For `CCOC(=O)C1C(=O)Nc2cc([N+](=O)[O-])ccc2C1=O` (stereo not shown) [Example 49, Ethyl 7-Nitro-2,4-dioxo-3-(1,2,3,4-tetrahydroquinoline)carboxylate], the Kb was < 150 µM.
